The results in this text go back to patent US10111897B2, “Compositions and methods for treating cancer with JAK2 activity” (Duke University, priority 2013, dated 2018).

Structures are written as SMILES.

For this experiment, the system named is PrkA. The note with it: 1 μM, 10 μM or 100 μM staurosporine; autophosphorylation and MBP phosphorylation.

Consider `CN[C@@H]1C[C@H]2O[C@@](C)([C@@H]1OC)n1c3ccccc3c3c4c(c5c6ccccc6n2c5c31)C(=O)NC4` [Staurosporine], for which the “inhibition of PrkA in vitro phosphorylation” value was “inhibits”.
